Residue numbers refer to the chain shown, from its start. Results are given in words; binding and its absence hold for the method and conditions named. Binding seen in cells or lysates may run through a third protein. For some assays here: Binding calls can cover weak binding; strength is not graded here. Tags and fused reporters may be left off the sequences shown.
Key:
Test in all cases: pull-down; GST-MYPT1 fragment and GFP-kinase fragment co-transfected in COS7 cells; lysate incubated with Glutathione Sepharose beads 1 h at 4 °C in 20 mM Tris-HCl pH 7.5, 1 mM EDTA, 1 mM DTT, 50 mM NaCl, 0.5% NP-40; washed three times; immunoblot with anti-GST or anti-GFP
[1] = target: T1, GST-MYPT1 C-terminal fragment (592–1032 aa) (rat) (UniProt Q10728)
T1 sequence: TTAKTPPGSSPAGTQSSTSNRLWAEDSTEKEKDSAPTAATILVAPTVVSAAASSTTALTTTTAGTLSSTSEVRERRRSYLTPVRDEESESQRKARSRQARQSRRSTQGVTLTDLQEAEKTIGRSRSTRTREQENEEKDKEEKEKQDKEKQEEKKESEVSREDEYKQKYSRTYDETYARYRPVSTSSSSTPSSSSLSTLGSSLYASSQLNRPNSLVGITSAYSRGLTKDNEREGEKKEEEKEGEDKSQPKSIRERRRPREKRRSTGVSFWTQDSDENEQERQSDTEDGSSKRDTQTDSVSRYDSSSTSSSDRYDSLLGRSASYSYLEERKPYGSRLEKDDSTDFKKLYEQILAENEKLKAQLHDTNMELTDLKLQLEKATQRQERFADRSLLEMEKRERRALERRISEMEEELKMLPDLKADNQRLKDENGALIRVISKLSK

[2] = target: T2, GST-MYPT1-655–703 aa (rat) (UniProt Q10728)
T2 sequence: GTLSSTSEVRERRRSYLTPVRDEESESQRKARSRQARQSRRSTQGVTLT

[3] = target: T3, GST-MYPT1-684–868 aa-4A (rat) (UniProt Q10728)
T3 sequence: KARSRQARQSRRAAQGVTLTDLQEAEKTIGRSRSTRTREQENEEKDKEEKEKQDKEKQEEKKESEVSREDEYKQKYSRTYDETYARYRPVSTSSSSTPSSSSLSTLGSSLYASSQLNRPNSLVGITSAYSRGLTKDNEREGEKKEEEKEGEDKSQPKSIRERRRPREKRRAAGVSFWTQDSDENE

[4] = target: T4, GST-MYPT1-713–868 aa (rat) (UniProt Q10728)
T4 sequence: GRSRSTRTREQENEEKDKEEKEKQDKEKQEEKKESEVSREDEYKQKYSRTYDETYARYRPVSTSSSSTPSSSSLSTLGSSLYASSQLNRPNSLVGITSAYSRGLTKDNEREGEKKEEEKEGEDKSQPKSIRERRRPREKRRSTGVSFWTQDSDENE

[5] = target: T5, GST-MYPT1-684–758 aa-696A/697A (rat) (UniProt Q10728)
T5 sequence: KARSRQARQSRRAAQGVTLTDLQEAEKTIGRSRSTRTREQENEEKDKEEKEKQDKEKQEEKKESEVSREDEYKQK

[6] = target: T6, GST-MYPT1-655–715 aa (rat) (UniProt Q10728)
T6 sequence: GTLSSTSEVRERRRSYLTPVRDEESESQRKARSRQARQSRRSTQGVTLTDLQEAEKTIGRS

[7] = target: T7, GST-MYPT1-758–868 aa (rat) (UniProt Q10728)
T7 sequence: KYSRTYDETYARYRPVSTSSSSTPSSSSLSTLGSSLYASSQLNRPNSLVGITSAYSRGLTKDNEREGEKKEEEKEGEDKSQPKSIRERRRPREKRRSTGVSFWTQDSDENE

[8] = target: T8, GST-MYPT1-684–868 aa (rat) (UniProt Q10728)
T8 sequence: T3 sequence with A13S, A14T, A171S, A172T

binding [1]: binds
binding [2]: no binding
binding [3]: binds
binding [4]: binds
binding [5]: no binding
binding [6]: binds
binding [7]: binds
binding [8]: binds
Substance: GFP-Rho-kinase-cat-L (6–553 aa, long form of catalytic fragment) (bovine) (domain or fragment)

Source: article PMC8869655, “Identification of the Kinase-Substrate Recognition Interface between MYPT1 and Rho-Kinase” (Biomolecules, 2022)
